In PubChem BioAssay AID2417 (National Center for Advancing Translational Sciences (NCATS), 2010):
The campaign covered roughly 140,000 compounds. About 4,300 (3.1%) were called active. The inconclusive results got no clear call from the source; some entries with a clear call stand among them for comparison.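 Rule for the calls: active = readout at or below -70, meaning at least 70% loss of cells showing the perinucleolar compartment, a nuclear body marking cancer cells; inconclusive = readout between -30 and a set limit; inactive = the rest.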

Test: High Content Assay for Compounds that inhibit the Assembly of the Perinucleolar Compartment;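 note: plate controls were DMSO wells for no effect and camptothecin positive control wells for full effect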
Details: PC3M PTB-GFP, PNC prevalence imaging, 16 h; at 10 µM; active compounds read low
Outline: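 Read-out is percentage of cells bearing a perinucleolar compartment, from automated 20x imaging of fixed, Hoechst-stained PC3M PTB-GFP cells. Cells were seeded 4 h, then exposed 16 h to compound (23 nl of library stock) in duplicate plates.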

| SMILES | activity change (PNC), negative = inhibition |
| --- | --- |
| CCc1nn2cc(C(=O)c3cc(C)ccc3O)cnc2c1-c1ccc(F)cc1 | inconclusive: -32.8% |
| CCCCOc1ccc(-c2csc(N)n2)cc1[N+](=O)[O-] | inactive: 10.5% |
| CCS(=O)(=O)N1CCN(C(=O)c2ccc(-c3ccccc3)cc2)CC1 | inactive: -25% |
| O=C(Nc1cccc(-c2nc3ccccc3[nH]2)c1)c1ccco1 | inconclusive: -58.4% |
| COc1ccc(OC)c(-n2nnnc2SCC(=O)NCc2ccc3c(c2)OCO3)c1 | inactive: 15.3% |
| O=C(N/N=C\c1ccc(-c2ccc([N+](=O)[O-])cc2)o1)C1COc2ccccc2O1 (centres undefined) | inconclusive: -61% |
| CCC1CCCCN1c1nc2c(C=O)c(C)nn2c2ccccc12 (centres undefined) | inconclusive: -38.6% |
| Clc1ccc(-n2ncc3c(NCc4cccs4)ncnc32)cc1 | inconclusive: -57.7% |
| CCOc1ccc(NC(=O)c2cccs2)c([N+](=O)[O-])c1 | inconclusive: -61.1% |
| Cc1cc(OCC(=O)Nn2cnnc2)c(C)cc1Br | inconclusive: -30.1% |
| O=C1CCCC2=C1C(c1cccs1)Nc1ccccc1N2 (centres undefined) | inconclusive: -39.1% |
| COc1ccc(Cl)cc1NC(=O)N1CCN(CCc2ccccc2)CC1 | inconclusive: -63.3% |
| Cc1ccc(C)c(Sc2ccc(NC(=O)CCl)cc2)c1 | inactive: -12.5% |
| OCCNCCCCOc1ccccc1F | inconclusive: -31% |
| O=C(/C=C/c1c[nH]c2ccccc12)c1cccc2ccccc12 | inconclusive: -46.9% |
| Cc1cc(C(=O)N/N=C/c2ccc(Cl)c([N+](=O)[O-])c2)c(C)n1-c1ccc(F)cc1 | inconclusive: -46.9% |
| COc1ccc(-c2noc(-c3cc4ccccc4oc3=O)n2)cc1 | inactive: -29.7% |
| Cc1nnc(SCC(=O)Nc2nsc(-c3ccccc3)n2)s1 | inconclusive: -37% |
| CC(C)(C)c1ccc(Cn2nnc3c(=O)[nH]c(C4CCN(C(=O)Cc5cccs5)CC4)nc32)cc1 | inactive: 23.7% |
| Cc1cc(NC(=O)Nc2ccc(F)c(Cl)c2)no1 | inconclusive: -36.5% |
| Cn1c(-c2ccc3c(c2)OCO3)cnc1N | inactive: -14.7% |
| O=C(NCCC1=CCCCC1)c1ccc(Cl)c(S(=O)(=O)Nc2ccccc2)c1 | inconclusive: -64.5% |
| O=C(CSCCc1ccccn1)Nc1cccnc1 | inconclusive: -32% |
| Cc1ccccc1Cn1cc(NC(=O)COc2ccccc2)cn1 | inconclusive: -48.6% |

| SMILES | activity change (PNC), negative = inhibition |
| --- | --- |
| Cc1cccc(C)c1NC(=O)C(NS(=O)(=O)c1cccs1)c1ccccc1 (centres undefined) | inconclusive: -37.8% |
| CC1CCc2c(sc3nc(CSc4n[nH]c(N)n4)[nH]c(=O)c23)C1 (centres undefined) | active: -94.8% |
| CC(=O)Nc1ccc(NC(=O)c2ccccc2F)cc1 | inconclusive: -44.4% |
| c1ccc(-c2cc(N3CCOCC3)nc3ccccc23)cc1 | inconclusive: -36% |
| Cc1cc(C)n(-c2cc(Oc3ccccc3)ncn2)n1 | inactive: 61.7% |
| Cc1ccc(C(=O)N(Cc2ccccc2)C(C)(C)C)cc1C | inconclusive: -55.7% |
| C/C(=N\NC(=O)c1nonc1N)c1cccs1 | inactive: -11% |
| CCOC(=O)c1cccc(NC(=O)CN(C)S(=O)(=O)c2cnc[nH]2)c1 | inconclusive: -59% |
| N/C(=N\OC(=O)C12CC3CC(CC(C3)C1)C2)c1ccccc1 | inconclusive: -38.8% |
| O=C(Cc1ccccc1)NC(NCCc1ccccc1)C(Cl)(Cl)Cl (centres undefined) | inactive: 49.9% |
| CC(=O)Oc1c(C(=O)c2nnc(C)o2)c(=O)n(C)c2ccccc12 | inactive: -28.7% |
| CCCN1C(=O)SC(CC(=O)Nc2ccccc2C)C1=O (centres undefined) | inactive: 46.5% |
| CCCNC(=O)c1c(C)cc(=O)oc1C | inconclusive: -44.6% |
| CCCc1cc(N2CCCC2)n2nc(C)c(-c3ccccc3)c2n1 | inconclusive: -33.9% |
| CN1CCN(c2ccc(S(=O)(=O)N3CCCCC3)cn2)CC1 | active: -82.6% |
| O=[N+]([O-])c1ccc(N/N=C/c2cn(Cc3ccc(F)cc3)c3ccccc23)nc1 | inactive: 13.3% |
| COc1ccc2[nH]c(-c3cccc(F)c3)cc(=O)c2c1 | inconclusive: -62.7% |
| CCOc1nc(NCCO)nc(NCCC2=CCCCC2)n1 | active: -100% |
| Cc1ccc(OCC(=O)OCCN2C(=O)c3ccccc3C2=O)cc1C | inactive: 14.8% |
| CC1CC(C)(C)Nc2ccc(OC(=O)c3ccco3)cc21 (centres undefined) | inactive: 40.6% |
| N#CCCn1ncn(-c2ccccc2)c1=S | inactive: -7.91% |
| O=C(O)CC(C(=O)O)N1C(=O)/C(=C/c2ccc(-c3nc4ccccc4s3)o2)SC1=S (centres undefined) | inconclusive: -60.2% |
| Nc1nc(SCC(=O)NCC2CCCO2)n[nH]1 (centres undefined) | inconclusive: -63.8% |
| CCc1cc(=O)oc2cc(OCc3nn[nH]n3)ccc12 | inconclusive: -37.6% |

| SMILES | activity change (PNC), negative = inhibition |
| --- | --- |
| CCOC(=O)C1=C(C)NC(=O)C1CC(=O)O (centres undefined) | inactive: -27% |
| Cn1c(SCc2nc3ccccc3[nH]2)nnc1-c1cccnc1 | inconclusive: -33.9% |
| CCOC(=O)C1=C(C)NC(=O)NC1/C(C)=C/c1ccccc1 (centres undefined) | inactive: 32% |
| O=C(O)Cn1ncc2c1-c1ccoc1CC2 | inconclusive: -45.3% |
| Cc1cc2[nH]c(=S)[nH]c2cc1C | inconclusive: -38.1% |
| O=C(NC1=NCCS1)c1ccc2c(c1)C(=O)N(Cc1ccco1)C2=O | inconclusive: -35.8% |
| O=C(NC1CCN(C(=O)Nc2ccccc2)CC1)C1CCCCC1 | inconclusive: -49.9% |
| CC(C)=CC(=O)OCC(=O)Nc1ccc(Cl)cn1 | inconclusive: -32.9% |
| CCn1c(-c2ccccc2Cl)nn(CC(=O)Nc2ccccc2OC)c1=S | inactive: 36.4% |
| O=C1C(Cl)=C(Nc2ccccc2O)C(=O)N1CCc1ccccc1 | inconclusive: -39.4% |
| O=c1c(CN2CCN(c3cccc(Cl)c3)CC2)coc2c(Cl)cc(Cl)cc12 | inconclusive: -42.4% |
| Cn1c(/C=N/NC(=O)c2ccccc2)nc2ccccc21 | inactive: 54.4% |
| CC1(C(=O)NC2CCCC2)CCC(=O)N1Cc1ccccc1Cl (centres undefined) | active: -87.6% |
| NNC(=O)CNC(c1ccccc1)c1cc(Br)ccc1NC(=O)c1ccccc1Br (centres undefined) | inactive: 75.7% |
| NS(=O)(=O)c1ccc(N/C=C\C(=O)c2ccc3ccccc3c2)cc1 | inconclusive: -46% |
| CC(=O)Nc1sc2c(c1C#N)CC(C)(C)NC2(C)C | inconclusive: -30.6% |
| Cc1cccc(C)c1Nc1nnc(SC(C)C(=O)Nc2c(C)n(C)n(-c3ccccc3)c2=O)s1 (centres undefined) | inactive: 30.4% |
| COc1ccc(CNC(=O)C(C#N)c2nc3ccccc3nc2N2CCN(C)CC2)cc1 (centres undefined) | inactive: -18.5% |
| COc1cc(OC)c(S(=O)(=O)NCc2ccco2)cc1S(=O)(=O)NCc1ccco1 | inconclusive: -32.1% |
| O=C(Nc1c(-c2ccccc2)nc2ccccn12)c1ccco1 | active: -82.3% |
| COc1cccc(NC(=O)Cn2nnc(-c3ccccc3N)n2)c1 | inconclusive: -57.7% |
| Cc1ccc(-c2ccc(C3C(C#N)=C(N)Oc4n[nH]c(C)c43)o2)cc1 (centres undefined) | inconclusive: -31.8% |
| Cn1sc(NC(=O)c2ccccc2Cl)nc1=O | inconclusive: -35.1% |
| CP(=O)(COC(=O)c1ccccc1)COC(=O)c1ccccc1 | inconclusive: -33.9% |

| SMILES | activity change (PNC), negative = inhibition |
| --- | --- |
| CCOC(=O)c1cnc(-n2nc(C)cc2C)nc1N(CC)CC | inconclusive: -52% |
| COc1ccc2c(CCNC(=O)CN3C(=O)c4ccccc4C3=O)c[nH]c2c1 | inconclusive: -50.9% |
| S=C(NCc1ccccn1)Nc1ccc(Cl)cc1 | inactive: -17.4% |
| CCOC(=O)c1cnc2ccc(OCC)cc2c1NCc1ccccc1OC | inconclusive: -45% |
| O=C(Nc1nc2ccccc2[nH]1)c1ccc(F)cc1 | inactive: -1.15% |
| CCn1c(/C=C/c2c(C)[nH]c3ccccc23)nc2ccccc2c1=O | inconclusive: -41.6% |
| CC(C)CN(C(=O)COC(=O)Cn1cnc2ccccc2c1=O)C1CCS(=O)(=O)C1 (centres undefined) | inconclusive: -60.2% |
| CCc1cccc(C)c1NC(=O)CNCc1ccccc1 | inactive: -27.1% |
| Cc1onc(-c2ccccc2)c1C(=O)NNC(=S)NC(=O)c1ccc(F)cc1 | inactive: 19.1% |
| O=C(Nc1nnc(SCc2ccccc2)s1)c1cccc([N+](=O)[O-])c1 | inconclusive: -54.5% |
| CSCCC(NC(=O)c1ccc([N+](=O)[O-])cc1Cl)C(=O)OCC(=O)NC1CCCC(C)C1C (centres undefined) | inconclusive: -48.8% |
| COc1ccc(CCNC(=O)C2CCN(S(=O)(=O)c3ccc(Cl)cc3)CC2)cc1OC | active: -100% |
| O=C(c1ccc2snnc2c1)N1CCCCC1 | active: -100% |
| Cc1ccc(C(=O)O)cc1NC(=S)NC(=O)c1ccc([N+](=O)[O-])cc1Cl | inactive: -17% |
| O=C(COC(=O)CC12CC3CC(CC(C3)C1)C2)Nc1ncc(Cl)cc1Cl | inactive: -19.2% |
| CN(C)CCCN1C(=O)C(=O)/C(=C(/O)c2ccncc2)C1c1ccccc1 (centres undefined) | inconclusive: -66.4% |
| O=S1(=O)CCN2C=C(Br)C=C(Br)C2=N1 | inconclusive: -49.8% |
| CCN(CC)c1ccc(/C=C(\C#N)c2nc(-c3cccs3)c(NC(C)=O)s2)cc1 | inactive: -30% |
| O=C(Nc1cccc(Cl)c1)c1ccc(-n2cncn2)c([N+](=O)[O-])c1 | inconclusive: -74.9% |
| O=C(Nc1ccccc1C(=O)NCC1CCCO1)c1ccc(Cl)cc1Cl (centres undefined) | inconclusive: -36.5% |
| O=C(CSCc1c(Cl)cccc1Cl)Nc1nccs1 | inactive: -11.5% |
| COc1ccc(-c2csc(NC(=O)c3ccc(S(=O)(=O)N4CCc5ccccc5C4)cc3)n2)cc1 | inconclusive: -49.2% |

Some values from the list.
Entry for O=C(c1ccc2snnc2c1)N1CCCCC1 under activity change (PNC), negative = inhibition: active: -100%
Entry for O=C(CSCc1c(Cl)cccc1Cl)Nc1nccs1 under activity change (PNC), negative = inhibition: inactive: -11.5%
Entry for CCOC(=O)c1cnc(-n2nc(C)cc2C)nc1N(CC)CC under activity change (PNC), negative = inhibition: inconclusive: -52%
Entry for COc1ccc(CCNC(=O)C2CCN(S(=O)(=O)c3ccc(Cl)cc3)CC2)cc1OC under activity change (PNC), negative = inhibition: active: -100%
Entry for O=C(Nc1nnc(SCc2ccccc2)s1)c1cccc([N+](=O)[O-])c1 under activity change (PNC), negative = inhibition: inconclusive: -54.5%
